Some results were stated once for a whole list of compounds, not compound by compound.
Biological target: T1, HRP (Armoracia rusticana, UniProt P00433)
T1 sequence (P00433 31-338): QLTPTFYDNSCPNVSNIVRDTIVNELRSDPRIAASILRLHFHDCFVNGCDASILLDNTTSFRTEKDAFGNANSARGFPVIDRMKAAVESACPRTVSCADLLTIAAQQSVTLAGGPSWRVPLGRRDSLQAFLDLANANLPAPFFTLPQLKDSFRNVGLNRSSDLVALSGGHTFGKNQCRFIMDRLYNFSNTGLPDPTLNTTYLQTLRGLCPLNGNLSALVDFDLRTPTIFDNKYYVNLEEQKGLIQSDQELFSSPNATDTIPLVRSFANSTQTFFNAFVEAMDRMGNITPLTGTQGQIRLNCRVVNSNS
Experiment: Fluorescent detection sensitivity of HRP (microtiter plate fluorometer, FIG. 3)
Type: biochemical, horseradish
Conditions: 0.05 mM substrate, 10 mM acetate buffer pH 5, reaction 15-20 min
Experimental: FIG. 3 is a graph showing the linearity of detection of HRP using fluorogenic substrates performed according to the methods of the present invention. Solutions containing 0.05 mM substrate 1 or 4, 0.1 mM 4-phenylphenol, 0.5 mM urea peroxide, 1 mM EDTA, 0.025% TWEEN 20 in 10 mM acetate buffer, pH 5 and a solution of 0.05 mM substrate 2, 0.1 mM 4-phenylphenol, 0.5 mM urea peroxide, 1 mM EDTA, 0.025% TWEEN 20 in 10 mM in 10 mM tris, pH 8 were reacted with the indicated quantities of HRP. After a reaction period of 15-20 min, fluorescence intensity was measured at the maximum. The term Intensity-Background refers to the fluorescence intensity in relative light units in the presence of HRP corrected for background fluorescence (B) in the absence of HRP. […]
Fluorescence detection limits were obtained on a Labsystems Fluoroskan Ascent microtiter plate fluorometer using an excitation bandpass filter (380 nm) and an emission bandpass filter (465 or 530 nm). […] The strips were then read on the Fluoroskan Ascent with the 380 nm-530 nm filter set.
(§1) HRP was serially diluted in type 1 water and 10 μl of diluted HRP was pipetted into each well. […] The strips were then read on the Fluoroskan Ascent with the 380 nm-465 nm filter set.
as §1

SMILES | Detectable amount of HRP (fluorescence)
CCOC(=O)C1c2ccccc2N(C)c2ccccc21 [Compound 1, ethyl N-methylacridan 9-carboxylate] | less than 1 amol
Fc1ccc(N2c3ccccc3Cc3ccccc32)cc1 [Compound 4, N-(4-fluorophenyl)acridan] | less than 1 amol
